From patent publication US20070209082A1, “Txr1 and enhanced taxane sensitivity based on the modulation of a pathway mediated thereby” (priority 2005, published 2007)
At least one peptide structure holds a part that was inferred or is arguable (an end, a ring closure or a residue). Ends that are not written are not given here.

What was measured:
M2182tTA = assay: MTT assay of drug sensitivity, M2182tTA cells; format: cell-based, human; conditions: for Effect on killing of naive M2182tTA cells by taxol: agent added with taxol, MTT assay
Clone 18 = assay: MTT assay of drug sensitivity, Clone 18 cells; conditions: agent added with adriamycin, etoposide, vinblastine, vincristine or epothilone B

| Sequence | Effect on killing of naive M2182tTA cells by taxol (M2182tTA) | Effect on killing of clone 18 cells by other chemotherapeutic agents (Clone 18) | Effect on sensitivity of M2182tTA cells to other chemotherapeutic drugs (M2182tTA; agent added with adriamycin, etoposide, vinblastine, vincristine or epothilone B) |
| --- | --- | --- | --- |
| KRFYGGMWKK [4NGG] | not | – | – |
| KRFYVVMWKK [4N1K] | enhanced cell killing by taxol | no detectable effects | no detectable effects |
